Experimental findings from patent publication US20200157542 are described below.

Chains of the proteins cited; added tags and fusions are not shown. Residues count along the entry.
UniProt P16422, 24-265: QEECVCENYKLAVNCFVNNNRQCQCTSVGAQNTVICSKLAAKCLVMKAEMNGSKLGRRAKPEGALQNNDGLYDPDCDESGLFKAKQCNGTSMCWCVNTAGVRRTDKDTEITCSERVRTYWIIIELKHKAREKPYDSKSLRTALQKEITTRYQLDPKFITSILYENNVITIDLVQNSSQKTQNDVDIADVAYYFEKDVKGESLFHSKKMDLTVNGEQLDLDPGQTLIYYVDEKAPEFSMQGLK
UniProt P16070, 21-649: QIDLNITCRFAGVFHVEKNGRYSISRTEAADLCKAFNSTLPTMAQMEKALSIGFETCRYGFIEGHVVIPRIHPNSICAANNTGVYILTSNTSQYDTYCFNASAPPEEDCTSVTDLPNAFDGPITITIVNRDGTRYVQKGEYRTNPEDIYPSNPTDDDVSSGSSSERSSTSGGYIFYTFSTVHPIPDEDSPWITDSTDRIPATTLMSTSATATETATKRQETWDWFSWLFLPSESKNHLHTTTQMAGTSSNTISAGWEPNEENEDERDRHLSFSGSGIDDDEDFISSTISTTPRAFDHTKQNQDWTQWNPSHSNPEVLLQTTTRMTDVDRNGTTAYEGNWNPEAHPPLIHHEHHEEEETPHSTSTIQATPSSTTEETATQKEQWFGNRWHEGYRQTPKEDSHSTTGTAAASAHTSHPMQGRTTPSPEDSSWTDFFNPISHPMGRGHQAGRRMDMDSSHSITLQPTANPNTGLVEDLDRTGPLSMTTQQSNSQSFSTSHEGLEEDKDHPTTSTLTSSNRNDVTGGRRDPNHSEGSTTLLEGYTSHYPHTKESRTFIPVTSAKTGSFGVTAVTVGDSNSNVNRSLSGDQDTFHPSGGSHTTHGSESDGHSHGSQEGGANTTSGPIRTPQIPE

One data set deals with EpCAM (human) (UniProt P16422). Briefly: flow cytometry. As to conditions: RNA (U for T in printed DNA template), 2'-F pyrimidines throughout; 1 uM aptamer, TBS, 5% BSA, tRNA, sperm DNA, 37 C; binding reduced by EpCAM siRNA and nearly lost on CD44+EpCAM double knockdown; protein on the cell surface; protein details: endogenous on OVCAR8 cells; label: 3'-Cy5 on EpCAM strand for flow cytometry. On the technique in general: A flow cytometer gives signals particle by particle.

Another data set concerns the target CD44 (human) (UniProt P16070). Briefly: flow cytometry. As to conditions: RNA (U for T in printed DNA template), 2'-F pyrimidines throughout; 1 uM aptamer, TBS, 5% BSA, tRNA, sperm DNA, 37 C; binding reduced by CD44 siRNA and nearly lost on CD44+EpCAM double knockdown; protein on the cell surface; protein details: endogenous on OVCAR8 cells; label: 3'-Cy5 on EpCAM strand for flow cytometry.

Results from cells or extracts need not show a direct contact.

Consider “GGGAUGGAUCCAAGCUUACUGGCAUCUGGAUUUGCGCGUGCCAGAAUAAAGAGUAUAACGUGUGAAUGGGAAGCUUCGAUAGGAAUUCGGAAAAGCUUGUUCAGGAGAUGAAAUU / GCGACUGGUUACCCGGUCGUAAAAUUUCAUCUCCUGAACAAGCUU [CD44-EpCAM bispecific aptamer]”, for which the binding result with EpCAM (human) and with CD44 (human) was “binds” throughout.
